The campaign covered roughly 410,000 compounds. About 18,000 (4.4%) were called active. The shares of active, inactive and inconclusive entries below differ from those in the screen. No stated cut-off is given here; in the data, active means activity change below about -60%; inconclusive means no clear call, values can overlap the other calls; inactive means above about -39%.
Assay: qHTS Assay for inhibitors of the human cytomegalovirus (HCMV)
Conditions: HFF cells, HCMV-luciferase reporter, 72 h; at 57.5 µM; active compounds read low
Summary of the method: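 Cell-based, HFFs, 1000 cells/well, 16 h 37C; cpds in DMSO + HCMV-luc, MOI 1 PFU/cell; 72 h 37C; OneGlo luminescence after 5 min RT; norm. to buffer vs Salinomycin 10uM.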
In the case of `O=C(Cn1ncc(Cl)c(Cl)c1=O)Nc1ccc2c(c1)OCO2`, the activity change, negative = inhibition is reported as active: -102%.
For `Cc1nn(Cc2c(F)c(F)c(F)c(F)c2F)c(C)c1NC(=O)c1ccc(COc2ccc(Cl)cc2Cl)o1`, the activity change, negative = inhibition was active: -81.3%.
For `O=C(CN1CCCCCC1)NC(c1ccccc1)c1ccccc1`, the activity change, negative = inhibition was inconclusive: -45.2%.
For `CCOC(=O)c1ccc(NC(=O)CCC(=O)N2CCSc3ccccc32)cc1`, the activity change, negative = inhibition was inconclusive: -42.4%.
For `CCc1ccc(OCc2cnc(Cl)s2)cc1`, the activity change, negative = inhibition was inconclusive: -47.8%.
For `Cc1ccc(-n2cc(CNCC3CC(=O)N(C4CC4)C3)c(-c3cccc(C)c3)n2)cc1` (centres undefined), the activity change, negative = inhibition was inconclusive: -41.2%.
For `COc1ccc(C(=O)COC(=O)c2nc3nccc(C)n3n2)cc1F`, the activity change, negative = inhibition was inactive: -21.6%.
With `COc1ccccc1CCC(=O)N1CCN(S(=O)(=O)c2cc(C(F)(F)F)ccc2Cl)CC1` the activity change, negative = inhibition was inconclusive: -48.1%.
With `COc1ccc(C(=O)Nc2c3c(nn2C(C)(C)C)CS(=O)(=O)C3)cc1OC` the activity change, negative = inhibition was inconclusive: -57%.
For `O=C(Nc1ccc(Cl)c(Cl)c1)O/N=C/c1ccncc1`, the activity change, negative = inhibition was inconclusive: -42.1%.
With `Cc1ccc2nc(SCC(=O)NCCc3ccccc3)nc(=O)n2c1` the activity change, negative = inhibition was inconclusive: -42.5%.
For `CCCC(C)C(=O)Nc1cc([N+](=O)[O-])ccc1F` (centres undefined), the activity change, negative = inhibition was inconclusive: -52%.
In the case of `COc1ccc(OCc2nc(N)nc(Nc3ccccc3OC)n2)cc1`, the activity change, negative = inhibition is reported as inconclusive: -44.1%.
In the case of `CCOc1cc(/C=C2\C(=O)ON=C2C)ccc1OCc1ccccc1`, the activity change, negative = inhibition is reported as active: -76.5%.
In the case of `O=C(CSc1nc2ccc(F)cc2c(=O)n1-c1ccccc1)Nc1ccc2c(c1)CCC2`, the activity change, negative = inhibition is reported as inconclusive: -50.2%.
For `COC(=O)c1ccccc1NC(=S)N(Cc1ccc2c(c1)OCO2)Cc1cc2cccc(C)c2[nH]c1=O`, the activity change, negative = inhibition was inconclusive: -40%.
For `O=C(Nc1cccc([N+](=O)[O-])c1)c1ccc2c(c1)OCO2`, the activity change, negative = inhibition was inconclusive: -41.3%.
In the case of `CC(C)NC(=O)COC(=O)c1ccccc1C(=O)c1ccccc1`, the activity change, negative = inhibition is reported as inconclusive: -57%.
For `O=C(N/N=C/c1cccs1)c1ccc(NC(=O)c2ccccc2Cl)cc1`, the activity change, negative = inhibition was active: -65.5%.
For `Cc1onc(-c2c(F)cccc2Cl)c1C(=O)NC(=S)Nc1c(C)n(C)n(-c2ccccc2)c1=O`, the activity change, negative = inhibition was inconclusive: -50.1%.
With `O=C(c1cc2c(s1)-c1ccccc1S(=O)(=O)C2)N1CCN(Cc2ccccc2)CC1` the activity change, negative = inhibition was active: -73.8%.
With `O=C(NCc1ccccc1Cl)c1ccc(NC(=O)N2CCSc3ccccc32)cc1` the activity change, negative = inhibition was inactive: -19.2%.
In the case of `CC(=O)Nc1ccc2nc(NC(=O)c3ccc([N+](=O)[O-])o3)sc2c1`, the activity change, negative = inhibition is reported as active: -102%.
In the case of `COc1ccc(C2=NOC(Cn3nc(C(=O)NCc4cccc(Br)c4)cc3-c3ccccc3)C2)cc1` (centres undefined), the activity change, negative = inhibition is reported as inconclusive: -59.5%.
For `CCN(CC)CCN(C(=O)CCOc1ccccc1)c1nc2c(F)cc(F)cc2s1`, the activity change, negative = inhibition was inconclusive: -41.3%.
For `CC1CCN(C(=O)C2c3ccccc3C(=O)N3CCc4ccccc4C23)CC1` (centres undefined), the activity change, negative = inhibition was inconclusive: -43.3%.
In the case of `CC1=C(C(=O)Nc2ccccc2)C(c2ccccn2)n2nc(SCc3ccccc3Cl)nc2N1` (centres undefined), the activity change, negative = inhibition is reported as inconclusive: -47.4%.
In the case of `CS(=O)(=O)Nc1ccccc1C(=O)Nc1cccc(Cl)c1`, the activity change, negative = inhibition is reported as active: -67.4%.
In the case of `CCOC(=O)CS(=O)(=O)c1nc(-c2ccccc2)cc(C(F)(F)F)n1`, the activity change, negative = inhibition is reported as active: -103%.
With `Cc1ccc(NC(=O)NC2CCN(S(=O)(=O)c3ccc(F)cc3)CC2)cc1` the activity change, negative = inhibition was inconclusive: -50.8%.
In the case of `c1ccc(-c2cn3c4c(sc3n2)CCCC4)cc1`, the activity change, negative = inhibition is reported as inconclusive: -54%.
In the case of `O=C(CSc1ccccc1)Nc1cccc(S(=O)(=O)N2CCCCC2)c1`, the activity change, negative = inhibition is reported as inactive: -4.82%.
For `CCc1cccc(NC(=O)Cn2ccn3nc(-c4ccc(OC)c(OC)c4)cc3c2=O)c1`, the activity change, negative = inhibition was inactive: 0.0119%.
With `O=C(Nc1ccc(F)cc1)c1ccc2c(c1)NC(=O)c1ccccc1S2` the activity change, negative = inhibition was inconclusive: -50.6%.
For `O=C(CC[C@H]1O[C@@H](n2ccc(=O)[nH]c2=O)[C@H](O)[C@@H]1O)NCCN1CCOCC1`, the activity change, negative = inhibition was inactive: 27.5%.
For `CCN(CC)CCOC(=O)c1ccc(NC(=O)Cn2ncc3c2-c2cc(C)ccc2OC3)cc1`, the activity change, negative = inhibition was inactive: -7.03%.
For `COc1ccc(NS(=O)(=O)c2ccc(C)c(C(=O)NC3CCN(Cc4ccccc4)CC3)c2)cc1`, the activity change, negative = inhibition was inconclusive: -59.9%.
In the case of `Cc1nn(-c2ccc(F)cc2)c(-n2cccc2)c1C(=O)NCCc1ccc(Cl)cc1`, the activity change, negative = inhibition is reported as inconclusive: -51%.
With `CC(=O)c1ccc(Nc2ncnc3ccc(Br)cc23)cc1` the activity change, negative = inhibition was inconclusive: -49.1%.
In the case of `C[C@H](CO)N1C[C@H](C)[C@@H](CN(C)S(=O)(=O)c2cccs2)Oc2ccc(NC(=O)Nc3ccccc3)cc2C1=O`, the activity change, negative = inhibition is reported as active: -65%.
With `CN(C)c1ccc(CNc2ccc3c(c2)ncn3C)cc1` the activity change, negative = inhibition was active: -102%.
With `O=C(NCC1CC1)c1ccccc1Cl` the activity change, negative = inhibition was inactive: 31.2%.
With `CCOC(=O)c1cccc(NC(=O)c2cc3ccccn3n2)c1` the activity change, negative = inhibition was inactive: 73.7%.
With `O=C(/C=C/c1cccc([N+](=O)[O-])c1)NCc1ccccc1` the activity change, negative = inhibition was inactive: -8.54%.
In the case of `CCOC(=O)C1(Cc2cccc(Cl)c2)CCCN(C(=O)c2ccoc2C)C1` (centres undefined), the activity change, negative = inhibition is reported as inactive: -3%.
For `Cc1cccc(Cn2cccc2CNS(=O)(=O)c2ccccc2F)c1`, the activity change, negative = inhibition was inactive: 2.03%.
In the case of `CC(C)C[C@@H](CO)N1CCN(Cc2ccc(Br)cc2)CCC1=O`, the activity change, negative = inhibition is reported as inconclusive: -55.6%.
In the case of `CCc1ccc(NC(=O)CN2C(=O)C(c3ccc(C)cc3)=NC23CCCCC3)cc1`, the activity change, negative = inhibition is reported as inconclusive: -42.3%.
In the case of `O=[N+]([O-])c1c(NCc2ccco2)ccc2nonc12`, the activity change, negative = inhibition is reported as inconclusive: -50.7%.
For `CCc1ccc(-c2cn(C3CCCCC3)c(=S)[nH]2)cc1`, the activity change, negative = inhibition was inconclusive: -44.1%.
In the case of `COc1ccc(NC(=O)C(Cc2ccccc2)NS(=O)(=O)c2ccc3c(c2)CCC(=O)N3)c(OC)c1` (centres undefined), the activity change, negative = inhibition is reported as active: -102%.
In the case of `COc1ccc(S(=O)(=O)NC(=O)C2(C)CCN2C(=O)Cc2ccc(-c3ccccc3)cc2)cc1` (centres undefined), the activity change, negative = inhibition is reported as inconclusive: -44%.
In the case of `COc1ccc(N2CCN(Cc3csc(C)c3-c3ccc(C)cc3)CC2)cc1`, the activity change, negative = inhibition is reported as active: -68.1%.
For `Cc1sc2ncnc(Nc3ccc(N4CCOCC4)cc3)c2c1-c1ccccc1`, the activity change, negative = inhibition was inconclusive: -42.7%.

From PubChem BioAssay AID1259415 (National Center for Advancing Translational Sciences (NCATS), 2018)
On the % scale 0 is the no-effect control and ±100 the full control effect.
